Patent US20260234287A1
No constants are given. Whether binding was seen depends on the method and setting. Some binding calls cover weakened binding; strength is not graded here.

Target: HER2 S310F-Fc (homodimeric) (human)
Assay: yeast surface display of the scFv, titration with soluble HER2 S310F (23-652)-Fc, 0-200 nM, flow cytometry (MFI); clone 5 is CH15V

binding: binds
B1: CH15V scFv displayed on yeast (scFv, V domains shown)
VH: EVQLVESGGGLVQPGGSLRLSCAASGFTFSGNYIHWVRQAPGKGLEWVASIYSAGGYTDYADSVKGRFTISADTSKNTAYLQMNSLRAEDTAVYYCARYGVYTMHQYGSWEQMPAFDYWGQGTLVTVSS
VL: DIQMTQSPSSLSASVGDRVTITCRASQSVSSAVAWYQQKPGKAPKLLIYSASSLYSGVPSRFSGSRSGTDFTLTISSLQPEDFATYYCQQSSSSLITFGQGTKVEIKR
